PubChem BioAssay AID248 (DTP/NCI, 2004)
The list shows only some results of the screen, not a fair sample: it gathers tests that were run many times, whatever their T/C, doses with no T/C, and many T/C values between a quarter and a half above the control. Other doses and runs of a compound stand elsewhere. T/C gives the treated animals as a percentage of the vehicle group. Some doses have a count of surviving animals in place of a T/C: the source files T/C as zero there, which appears to mark a toxic dose or a test without result, not a measured value. Some survivor counts are full or nearly so, which does not show that the dose was tolerated: the source hardly ever lists a survival T/C far under the control, and the zero likely stands for such cases as well. Survivors were counted at the toxicity check, usually on the fifth day, unless a day is given; later deaths do not show. Schedules are NCI's codes, read here as Q, the interval in days (D) or hours (H), X, the number of doses. Some entries hold several experiments; the values are given in rising order. Some schedules carry Z or #; the key to these is not given. For survival time, the PubChem record calls one and a half times the control and up active, and a quarter to a half above the control has no call in these data; cut-offs in other NCI protocols can differ. Counts like (3×) say how often a value occurs here. Some T/C values carry the count of animals alive at the toxicity check (mostly the fifth day); without a count, all were alive then.

Test system: L1210 leukemia ip in BDF1 mice, survival T/C
Test: NCI In Vivo Anticancer Drug Screen. Data for tumor model L1210 Leukemia (intraperitoneal) in B6D2F1 (BDF1) mice
Conditions: T/C endpoint: mean survival time, higher T/C = longer survival
[1] = dose: 200.0 mg/kg/injection, schedule: Q01DX009 (ip), vehicle: Klucel (hydroxypropylcellulose) (HPC)
[2] = dose: 400.0 mg/kg/injection, schedule: Q01DX009 (ip), vehicle: Klucel (hydroxypropylcellulose) (HPC)
[3] = dose: 50.0 mg/kg/injection, schedule: Q01DX009 (ip), vehicle: Klucel (hydroxypropylcellulose) (HPC)
[4] = dose: 400.0 mg/kg/injection, schedule: Q04DX003 (ip), vehicle: Klucel (hydroxypropylcellulose) (HPC)
[5] = dose: 400.0 mg/kg/injection, schedule: Q01DX009 (ip), vehicle: saline with Tween-80
[6] = dose: 25.0 mg/kg/injection, schedule: Q04DX003 (ip), vehicle: saline
[7] = dose: 50.0 mg/kg/injection, schedule: Q04DX003 (ip), vehicle: saline
[8] = dose: 100.0 mg/kg/injection, schedule: Q04DX003 (ip), vehicle: saline
[9] = dose: 100.0 mg/kg/injection, schedule: Q04DX002 (ip), vehicle: saline
[10] = dose: 200.0 mg/kg/injection, schedule: Q04DX002 (ip), vehicle: saline
[11] = dose: 400.0 mg/kg/injection, schedule: Q04DX002 (ip), vehicle: saline
[12] = dose: 400.0 mg/kg/injection, schedule: Q01DX001 (ip), vehicle: saline
[13] = dose: 400.0 mg/kg/injection, schedule: Q04DX003 (ip), vehicle: saline with Tween-80
[14] = dose: 100.0 mg/kg/injection, schedule: Q01DX001 (ip), vehicle: saline

For O=C1c2cccc3cccc(c23)C(=O)N1CCN1C(=O)c2cccc3cccc(c23)C1=O, which survivor count (dose: 100.0 mg/kg/injection, schedule: Q01DX009 (ip), vehicle: Klucel (hydroxypropylcellulose) (HPC)) is on record?
The survivor count was 6 of 6.

And the survivor count [1]?
The survivor count was 4 of 6.

And the survivor count [2]?
The survivor count was 0 of 6.

For CCO/C=C1\SC(=S)N(c2ccc(O)cc2)C1=O, which survivor count [1] is on record?
Its survivor count is 6 of 6.

And the survivor count [2]?
The survivor count was 1 of 6.

And the survivor count (dose: 400.0 mg/kg/injection, schedule: Q01DX009 (ip), vehicle: other)?
The survivor count was 3 of 6.

How did the survivor count [3] turn out when CCOc1c(OC)cc(/C=C/C(=O)NC2CC2)cc1OC was run?
Its survivor count is 3 of 3.

And the survivor count [1]?
The survivor count was 6 of 6.

And the survivor count [2]?
Its survivor count is 0 of 6.

With Cc1c2ccc3ccccc3c2c(C)[n+]2ccccc12 as the compound, how does the survivor count (dose: 16.0 mg/kg/injection, schedule: Q01DX Z (ip), vehicle: carboxymethylcellulose (CMC)) read?
The survivor count was 1 of 6.

For Cc1cc(=O)oc2cc(O)ccc12, which survivor count [4] is on record?
The survivor count was 2 of 6.

How did the survivor count [5] turn out when CC(=O)Nc1ccc2c(c1)OCO2 was run?
Its survivor count is 0 of 6.

What does the source list for CNC1=C(N2CC2C)C(=O)C(NC)=C(N2CC2C)C1=O (stereo not given)?
T/C (dose: 0.62 mg/kg/injection, schedule: Q01DX009 (ip), vehicle: saline): 126 % of control [5 of 6 alive]; T/C (dose: 2.5 mg/kg/injection, schedule: Q01DX001 (ip), vehicle: saline): 136 % of control; T/C (dose: 2.5 mg/kg/injection, schedule: Q01DX009 (ip), vehicle: saline): 132 % of control; T/C (dose: 5.0 mg/kg/injection, schedule: Q01DX001 (ip), vehicle: saline): 142 % of control; T/C (dose: 5.0 mg/kg/injection, schedule: Q01DX009 (ip), vehicle: saline): 137 % of control; T/C (dose: 5.4 mg/kg/injection, schedule: Q04DX003 (ip), vehicle: saline): 130 % of control; T/C (dose: 6.25 mg/kg/injection, schedule: Q04DX003 (ip), vehicle: saline): 148 % of control; T/C (dose: 8.2 mg/kg/injection, schedule: Q04DX003 (ip), vehicle: saline): 140 % of control; T/C (dose: 12.5 mg/kg/injection, schedule: Q04DX003 (ip), vehicle: saline): 144 % of control; survivor count (dose: 20.0 mg/kg/injection, schedule: Q01DX001 (ip), vehicle: saline): 3 of 6; survivor count [6]: 1 of 6; survivor count [7]: 1 of 6; survivor count [8]: 2 of 6

For O=C(c1ccc([N+](=O)[O-])cc1)N1CC1Cc1ccccc1 (stereo not given), which survivor count (dose: 400.0 mg/kg/injection, schedule: Q01DX001 (ip), vehicle: Klucel (hydroxypropylcellulose) (HPC)) is on record?
The survivor count was 1 of 6.

For O=CC(O)C(O)C(OC1OC(CO)C(O)C(O)C1O)C(O)CO (stereo not given) (tested in a mixture with another compound), which survivor count [5] is on record?
The survivor count was 3 of 6.

Which results are given for CSC(N)=NC1CCCCC1?
survivor count (dose: 50.0 mg/kg/injection, schedule: Q04DX002 (ip), vehicle: saline): 1 of 3; survivor count [9]: 0 of 3; survivor count [10]: 0 of 3; survivor count [11]: 0 of 3

Which survivor count [12] does the source give for C[N+](C)(C)CC(O)CCl (stereo not given) here?
Its survivor count is 1 of 6.

For O=C(OCCl)c1ccc(Cl)c(Cl)c1, which survivor count (dose: 100.0 mg/kg/injection, schedule: Q04DX003 (ip), vehicle: Klucel (hydroxypropylcellulose) (HPC)) is on record?
The survivor count was 6 of 6.

And the survivor count (dose: 200.0 mg/kg/injection, schedule: Q04DX003 (ip), vehicle: Klucel (hydroxypropylcellulose) (HPC))?
Its survivor count is 6 of 6.

And the survivor count [4]?
Its survivor count is 4 of 6.

How did the survivor count [9] turn out when NCCCOC12CC3CC(CC(C3)C1)C2 was run?
Its survivor count is 0 of 3.

What about the survivor count [10] of the same compound?
The survivor count was 0 of 3.

And the survivor count [11]?
The survivor count was 0 of 3.

How did the survivor count [2] turn out when Cc1cccnc1NC(=O)NCCCl was run?
The survivor count was 2 of 6.

For CC1(C)CN1C1=C(F)C(=O)C(N2CC2(C)C)=C(F)C1=O, which survivor count [7] is on record?
The survivor count was 3 of 6.

What about the survivor count [8] of the same compound?
Its survivor count is 0 of 6.

What does the source list for O=C(NCCNCc1ccccc1)c1ccccc1?
survivor count (dose: 50.0 mg/kg/injection, schedule: Q01DX009 (ip), vehicle: water): 5 of 6; survivor count (dose: 100.0 mg/kg/injection, schedule: Q01DX009 (ip), vehicle: water): 4 of 6 and 5 of 6; survivor count (dose: 200.0 mg/kg/injection, schedule: Q01DX009 (ip), vehicle: water): 0 of 6; survivor count (dose: 200.0 mg/kg/injection, schedule: Q04DX003 (ip), vehicle: saline with Tween-80): 0 of 6; survivor count [13]: 0 of 6

Which survivor count (dose: 400.0 mg/kg/injection, schedule: Q01DX001 (ip), vehicle: saline with Tween-80) does the source give for O=S1(=O)C=CC(Br)C1 (stereo not given) here?
The survivor count was 0 of 6.

Which survivor count (dose: 100.0 mg/kg/injection, schedule: Q04DX002 (ip), vehicle: saline with Tween-80) does the source give for Cc1cc(S(=O)(=O)F)cc(Cl)c1S here?
Its survivor count is 1 of 3.

For O=C(/C=C1\C(=O)Nc2ccccc21)/C=C1/C(=O)Nc2ccccc21, which survivor count [1] is on record?
Its survivor count is 3 of 6.

What about the survivor count [2] of the same compound?
The survivor count was 0 of 6.

ClCCCNCc1ccccc1 was tested. Which survivor count (dose: 200.0 mg/kg/injection, schedule: Q04DX003 (ip), vehicle: saline) did it give?
The survivor count was 2 of 6.

What about the survivor count (dose: 400.0 mg/kg/injection, schedule: Q04DX003 (ip), vehicle: saline) of the same compound?
Its survivor count is 0 of 6.

Which survivor count [5] does the source give for CCOc1ccc(Br)cc1 here?
The survivor count was 1 of 3 and 6 of 6.

CN(C)CCCN1CC2C3CCCCC3=C3CCCCC3C2C1 (stereo not given) was tested. Which survivor count [14] did it give?
Its survivor count is 2 of 4.

What about the survivor count (dose: 200.0 mg/kg/injection, schedule: Q01DX001 (ip), vehicle: saline) of the same compound?
The survivor count was 0 of 4.

And the survivor count [12]?
Its survivor count is 0 of 4.

C=C(Br)CNCCCCCC was tested. Which survivor count [3] did it give?
The survivor count was 5 of 6.

For Nc1c(C(F)(F)F)[nH]c(Cl)nc1=S, which survivor count (dose: 44.0 mg/kg/injection, schedule: Q01DX Z (ip), vehicle: methylcellulose (MC)) is on record?
The survivor count was 6 of 6.

And the survivor count (dose: 100.0 mg/kg/injection, schedule: Q01DX Z (ip), vehicle: methylcellulose (MC))?
Its survivor count is 5 of 6.

CN(N=O)C(=O)NCCSSCCNC(=O)N(C)N=O was tested. Which T/C (dose: 25.0 mg/kg/injection, schedule: Q01DX Z (ip), vehicle: carboxymethylcellulose (CMC)) did it give?
Its T/C is 133 % of control.

What about the T/C (dose: 30.0 mg/kg/injection, schedule: Q01DX011 (ip), vehicle: carboxymethylcellulose (CMC)) of the same compound?
The T/C was 132 % of control.

And the T/C (dose: 30.0 mg/kg/injection, schedule: Q01DX Z (ip), vehicle: carboxymethylcellulose (CMC))?
Its T/C is 130 % of control.

What about the T/C (dose: 35.0 mg/kg/injection, schedule: Q01DX Z (ip), vehicle: carboxymethylcellulose (CMC)) of the same compound?
Its T/C is 130 % of control.

And the T/C (dose: 45.0 mg/kg/injection, schedule: Q01DX Z (ip), vehicle: carboxymethylcellulose (CMC))?
Its T/C is 125 % of control [5 of 6 alive].

And the T/C (dose: 50.0 mg/kg/injection, schedule: Q01DX Z (ip), vehicle: carboxymethylcellulose (CMC))?
Its T/C is 143 % of control.

What about the survivor count (dose: 100.0 mg/kg/injection, schedule: Q01DX Z (ip), vehicle: carboxymethylcellulose (CMC)) of the same compound?
Its survivor count is 5 of 6.

And the survivor count (dose: 200.0 mg/kg/injection, schedule: Q01DX Z (ip), vehicle: carboxymethylcellulose (CMC))?
Its survivor count is 0 of 6.

What about the survivor count (dose: 300.0 mg/kg/injection, schedule: Q01DX Z (ip), vehicle: carboxymethylcellulose (CMC)) of the same compound?
Its survivor count is 0 of 6.

And the survivor count (dose: 400.0 mg/kg/injection, schedule: Q01DX Z (ip), vehicle: carboxymethylcellulose (CMC))?
The survivor count was 0 of 6.

For CN(C)c1ccc(/C=N/NC(=O)c2ccc(O)cc2)c(Cl)c1, which T/C (dose: 100.0 mg/kg/injection, schedule: Q01DX009 (ip), vehicle: saline with Tween-80) is on record?
Its T/C is 92, 96, 97, 106 % of control.

What about the survivor count (dose: 200.0 mg/kg/injection, schedule: Q01DX009 (ip), vehicle: saline with Tween-80) of the same compound?
The survivor count was 3 of 3 and 6 of 6.

And the survivor count [5]?
Its survivor count is 2 of 3.

Which survivor count [13] does the source give for COc1ccccc1OCCN1Cc2ccccc2C1 here?
The survivor count was 2 of 6.

For COc1cc2c(cc1OC)C(Cc1ccc(O)cc1)N(C)CC2 (stereo not given), which survivor count [12] is on record?
Its survivor count is 2 of 4.

What does the source list for CN(C)/N=N/c1ncn[nH]1?
T/C (dose: 12.0 mg/kg/injection, schedule: Q01DX009 (ip), vehicle: saline): 147 % of control; T/C [6]: 127 % of control; T/C (dose: 33.0 mg/kg/injection, schedule: Q04DX003 (ip), vehicle: saline): 133 % of control; T/C [7]: 145 % of control (2×); T/C (dose: 75.0 mg/kg/injection, schedule: Q04DX003 (ip), vehicle: saline): 131 % of control; T/C [14]: 145 % of control
